Test results reported in patent US4198429A, “Esters of 5-methyl-10,11-dihydroprostaglandin-A1” (Hoechst Aktiengesellschaft, priority 1976, dated 1980).
The name of at least one read-out is uncertain.

System: bronchial muscles
Test: Bronchospasmolytic effect and its duration, modified Konzett-Rossler test
Assay type: in vivo, Guinea pig
Conditions: male white Guinea pigs, anesthesized, V. jugularis, asthmogenic agent not specified
Method: To test the bronchospasmolytic activity of the compounds of the invention the following experiments were carried through:
TEST ACCORDING TO KONZETT-ROSSLER
To test the bronchospasmolytic activity the respiratory volume was measured by the method of Konzett-Rossler, according to which the air volume is measured which is taken up by the lung when the maximum inflation pressure is maintained constant and a constant volume is offered by high pressure respiration. Capacity variations in the respiratory tract result in an increase or decrease of the amount of air taken up by the lung under the given constant inflation pressure.
As test animals male white Guinea pigs having a weight of from 400 to 500 grams were used which had been anesthesized with 10 mg/kg i.p. of Evipan and 200 mg/kg i.p. of urethane. […] The positive pressure respiration depended on the normal respiratory volume of the test animal and could be adapted suitably and readily to the individual test animal. […] The respiratory volume was measured according to the slightly modified Konzett-Rossler method wherein the piston recorder was replaced by a back-pressure tube according to Fleisch (type 0000). The occuring pressure difference was recorded by a difference pressure recorder of the type Statham PM 97 CT. To record the measured values a multi-channel recorder of Messrs. […]

With `CCCCC[C@H](O)/C=C/[C@H]1CCC(=O)[C@@H]1CCC(C)CCCC(=O)O` (some centres unmarked) [comp. II, 5-methyl-10,11-dihydroprostaglandin-A1] the duration of effect was 10 min and the duration of effect (listed as 5-methyl-10,11-dihydroprostaglandin-A1) was ≤ 10 min.
